Results reported in the supplement of paper PMC10735217.
Where a name gives a salt, the structure may show the parent alone. Some of the results follow. Single values are uncertain here, since repeats match poorly.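 Human kidney-derived cells stably carry a construct in which eight TEAD-binding elements drive luciferase, measured by luminescence in a drug-repurposing library screen. A hit is any compound whose signal exceeds the plate mean by more than five robust Z scores.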

Tested on: HEK293A TEAD-LUC reporter
Assay: TEAD-luciferase reporter activity (YAP activation), robust Z score vs plate; higher = stronger YAP/TEAD activation
Details: 24 h

| SMILES | TEAD-luciferase reporter activity (compound concentration: 200 nM) | TEAD-luciferase reporter activity (compound concentration: 2 uM) | TEAD-luciferase reporter activity (compound concentration: 10 uM) |
| --- | --- | --- | --- |
| O=C(NC[C@H](O)CO)c1ccncc1Nc1ccc(I)cc1F [anticancer, Merck KGaA] | inactive: -0.764 | inactive: -0.347 | inactive: -0.671 |
| CC(=O)N1Cc2ccccc2CC12CCCN(C(=O)Cc1ccc(O)cc1)C2 (stereo unspecified) | inactive: -1.2 | – | inactive: 0.327 |
| Cc1c(Cl)cccc1Nc1ccccc1C(=O)O [tolfenamic acid] | – | inactive: -1.1 | – |
| Cc1c(Cl)cccc1Nc1ccccc1C(=O)O [Tolfenamic Acid] | inactive: -0.406 | – | inactive: 0.794 |
| NC[C@@H]1O[C@H](C23CC4CC(CC(C4)C2)C3)Cc2c1ccc(O)c2O | inactive: -1.46 | inactive: -0.681 | inactive: -0.392 |
| CCOc1ccn(-c2ccc(F)cc2)c(=O)c1C(=O)Nc1ccc(Oc2ccnc(N)c2Cl)c(F)c1 | inactive: -1.08 | inactive: -1.28 | inactive: -0.715 |
| COc1cc2c(N3CCN(C(=O)Nc4ccc(OC(C)C)cc4)CC3)ncnc2cc1OCCCN1CCOCC1 | inactive: -1.1 | inactive: -0.977 | inactive: 0.726 |
| CC(=O)[C@H]1CC[C@H]2[C@@H]3CC=C4C[C@@H](OS(=O)(=O)O)CC[C@]4(C)[C@H]3CC[C@]12C | inactive: -0.376 | inactive: 0.0451 | inactive: 0.851 |
| CC(=O)C1=C([O][Pt-2]2([O]C3=C(C(C)=O)C(=O)O[C@H]3C)[NH2+][C@@H]3CCCC[C@H]3[NH2+]2)[C@H](C)OC1=O | inactive: -0.97 | inactive: -0.704 | inactive: 1.58 |
| CC(=O)NS(=O)(=O)c1ccc(NC(=O)c2ccccc2C(=O)O)cc1 | inactive: 1.51 | inactive: 0.731 | inactive: -0.199 |
| Cc1c(CC(=O)O)c2cccnc2n1Cc1ccc(S(C)(=O)=O)cc1C(F)(F)F [Fevipiprant] | inactive: 1.48 | inactive: -0.927 | inactive: -0.0143 |
| COc1ccc(C(=O)NCc2ccc(OCCN(C)C)cc2)cc1OC [itopride hydrochloride ER] | – | inactive: -1.23 | – |
| COc1ccc(C(=O)NCc2ccc(OCCN(C)C)cc2)cc1OC | inactive: 0.997 | – | inactive: -1.03 |
| Clc1ccc(/C(=C\c2ccc(Cl)cc2Cl)Cn2ccnc2)cc1 | inactive: -0.86 | inactive: -0.736 | inactive: -0.921 |
| CC(C)Oc1ccc2oc3ccc(C(=O)O)cc3c(=O)c2c1 [Xanoxic acid] | inactive: 2.13 | inactive: -1.73 | inactive: 2.27 |
| NC(=O)C1c2ccccc2CCc2ccccc21 | inactive: 2.6 | inactive: -0.967 | inactive: -1.4 |
| COc1c(C(C)C(=O)S[C@@H](C)C(=O)NCC(=O)O)ccc2ccccc12 (stereo partly specified) | inactive: -0.266 | inactive: 0.276 | inactive: -0.122 |
| CN(C)CCOC(c1ccccc1)c1ccnn1C (stereo unspecified) [Cizolirtine citrate] | inactive: -0.147 | inactive: -1.26 | inactive: -0.469 |
| Cc1nc(-c2ccc(C(F)(F)F)cc2)sc1COc1ccc(C(=N)NO)c(Cl)c1 | inactive: -1.16 | inactive: -0.345 | inactive: 2.27 |
| Nc1ccc2cc3ccc(N)cc3nc2c1 [Proflavine] | inactive: 1.5 | inactive: 3.54 | inactive: -1.18 |

Limited to TEAD-luciferase reporter activity (compound concentration: 2 uM) and TEAD-luciferase reporter activity (compound concentration: 10 uM) (2 entries from above):
SMILES,TEAD-luciferase reporter activity (compound concentration: 2 uM),TEAD-luciferase reporter activity (compound concentration: 10 uM)
CC(=O)NS(=O)(=O)c1ccc(NC(=O)c2ccccc2C(=O)O)cc1,inactive: 0.731,inactive: -0.199
COc1ccc(C(=O)NCc2ccc(OCCN(C)C)cc2)cc1OC [itopride hydrochloride ER],inactive: -1.23,–

Next records:

| SMILES | TEAD-luciferase reporter activity (compound concentration: 200 nM) | TEAD-luciferase reporter activity (compound concentration: 2 uM) | TEAD-luciferase reporter activity (compound concentration: 10 uM) |
| --- | --- | --- | --- |
| CONC(=O)c1ccccc1Nc1cc(Nc2cc(C)nn2C(C)C)ncc1Cl | inactive: -0.58 | inactive: -1.39 | inactive: -1.67 |
| C[C@@H](OC(C)(C)C)[C@H](NC(=O)OCc1ccccc1)C(=O)OCc1ccccc1 | inactive: 1.37 | inactive: 1.62 | inactive: -2.16 |
| OCc1cccnc1 | inactive: -0.985 | inactive: -1.06 | inactive: -0.195 |
| O=C(CCCN1CCC(O)(c2cccc(C(F)(F)F)c2)CC1)c1ccc(F)cc1 | inactive: 1.87 | inactive: -0.327 | inactive: 2.61 |
| CC(=O)c1cc2c(o1)C(=O)c1ccccc1C2=O [Napabucasin] | inactive: 0.822 | inactive: -1.19 | inactive: -1.46 |
| OC[C@H]1O[C@H](O[C@]2(CCl)O[C@H](CCl)[C@@H](O)[C@@H]2O)[C@H](O)[C@@H](O)[C@H]1Cl | inactive: 2.24 | inactive: -1.4 | inactive: 3.92 |
| CNC(=O)c1c[nH]c2cccnc12 | inactive: -2.45 | – | active: 8.17 |
| CC1SC(=O)NN=C1c1ccncc1 (stereo unspecified) | inactive: -0.267 | inactive: 0.41 | inactive: -1.04 |
| CC[C@H](CC#N)OC(=O)NC(C)c1cccc(NC(=O)Nc2ccc(C#N)c(OC)c2)c1 (stereo partly specified) | inactive: -0.466 | inactive: -0.75 | active: 6.3 |
| COc1cc2nc(N3CCN(C(=O)c4nnc(SC)o4)CC3)nc(N)c2cc1OC [tiodazosin] | inactive: -0.61 | inactive: 1.11 | inactive: -0.0277 |
| O=C1CCc2cc(OCCCCc3nnnn3C3CCCCC3)ccc2N1 [cilostazol SR] | inactive: -0.778 | inactive: 1.94 | inactive: -0.866 |
| COc1ccc(CCN(C)CCOc2ccc(NS(C)(=O)=O)cc2N)cc1OC | inactive: -0.256 | inactive: -0.271 | inactive: 1.42 |
| COc1ccc(Oc2cc(N(C)CCOc3ccc(CC4SC(=O)NC4=O)cc3)ncn2)cc1 (stereo unspecified) | inactive: -0.814 | inactive: -0.555 | inactive: 2.64 |
| CCCC(=O)Nc1ccc(OCC(O)CNC(C)C)c(C(C)=O)c1 (stereo unspecified) | inactive: -1.21 | – | active: 5.89 |
| CCCC(=O)Nc1ccc(OCC(O)CNC(C)C)c(C(C)=O)c1 (stereo unspecified) [acebutolol] | – | inactive: 0.106 | – |
| O=C(Cc1cccc(Cl)c1)N1CCC(n2c(=O)[nH]c3ccccc32)CC1 | inactive: -0.851 | – | inactive: -0.953 |
| Oc1nc(S)ncc1I | inactive: -0.763 | inactive: 1.88 | inactive: -0.591 |
| Cc1cc(C)n(-c2ccccc2O)n1 | inactive: -0.868 | inactive: -0.436 | inactive: -1.08 |
| Cc1cccc2cc(CN(Cc3cc(C(F)(F)F)cc(C(F)(F)F)c3)c3nnn(C)n3)c(N(CC3CC3)CC3CC3)nc12 | inactive: -0.32 | inactive: -1.28 | inactive: -0.165 |
| C=CCc1c(OCc2ccccn2)ccc2c1CN1C(=O)CN(C3CCCC3)C(=O)[C@H]1C2 | inactive: -2.42 | inactive: -0.462 | inactive: 2.73 |

| SMILES | TEAD-luciferase reporter activity (compound concentration: 200 nM) | TEAD-luciferase reporter activity (compound concentration: 2 uM) | TEAD-luciferase reporter activity (compound concentration: 10 uM) |
| --- | --- | --- | --- |
| Cc1cc(C)c(N(C)CC(=O)Nc2nc(-c3ccccn3)c[nH]2)c(C)c1 | inactive: -1.34 | inactive: -0.279 | inactive: -0.855 |
| Cc1cc2c(cc1C(=O)Oc1ccc(C(=O)O)cc1)C(C)(C)CCC2(C)C | inactive: -1.39 | inactive: 3.39 | inactive: 2.03 |
| CCOC(=O)/C=C1\SC(N2CCCC2)C(=O)N1C (stereo unspecified) | inactive: 0.376 | inactive: -0.986 | inactive: 1.92 |
| CSc1ccc(Oc2ccc(S(N)(=O)=O)cc2CN(C)C)cc1C | inactive: -0.94 | inactive: 2.04 | inactive: -0.0706 |
| Cc1cc(C(=O)Nc2nc3cccc(Cl)c3n2[C@@H]2CCCCN(C(=O)/C=C/CN(C)C)C2)ccn1 [Nazartinib] | inactive: -2.2 | inactive: -0.213 | inactive: -0.765 |
| CCCn1c(=O)c2[nH]c(C34CC5CC3CC(C4)C5O)nc2n(CCC)c1=O (stereo unspecified) | inactive: 1.55 | inactive: -1.12 | inactive: 2.56 |
| Cc1nc(Nc2ncc(N3CCN(C)[C@H](C)C3)c(Nc3cc(C)n(C)n3)n2)cc(C2CC2)c1F | inactive: 1.05 | – | inactive: -0.0673 |
| O=C(O)CCCCC(CCSCc1ccccc1)SCc1ccccc1 (stereo unspecified) [AML therapy, Cornerstone Pharmaceuticals] | inactive: -2.33 | inactive: 3.29 | active: 11.3 |
| Cc1c(S(=O)(=O)Nc2ccc(-c3nc(C(=O)O)cs3)cc2S(C)(=O)=O)sc2ccc(F)cc12 | inactive: -1.17 | inactive: 2.63 | inactive: -1.73 |
| Cc1ccc(CCSC(Cc2ccc(CCOc3ccc(OS(C)(=O)=O)cc3)cc2)C(=O)O)cc1 (stereo unspecified) | inactive: -0.818 | inactive: -0.403 | inactive: -0.206 |
| Cc1ccc2c(Br)cc(Br)c(OC(=O)c3cccc(F)c3)c2n1 | inactive: 0.214 | inactive: 3.53 | inactive: 1.19 |
| CCONC(=O)c1cc(Br)ccc1O | inactive: 0.138 | inactive: -1.13 | inactive: -0.267 |
| CC1=C(/C=C/C(C)=C/C=C/C(C)=C/C(=O)O)C(C)(C)CCC1 [trans-Retinoic acid302-79-4] | inactive: -0.81 | – | inactive: 0.0201 |
| CC1=C(/C=C/C(C)=C/C=C/C(C)=C/C(=O)O)C(C)(C)CCC1 [Tretinoin] | – | inactive: 0.755 | – |
| c1ccc(-c2nnc(NC3CCCCCCC3)c3ccccc23)cc1 | inactive: -2.53 | inactive: -0.52 | inactive: -0.961 |
| Cc1ccc(C)n1Nc1ccc(N2CCOCC2)nn1 [mopidralazine] | inactive: -1.41 | inactive: 0.00211 | inactive: 0.917 |
| Cn1cc2c(-c3ccc(F)cc3)c(-c3ccncc3)c(-c3ccc(F)cc3)nc2n1 | inactive: -0.507 | inactive: -2.43 | inactive: -0.34 |
| COc1ccc2[nH]c(S(=O)Cc3ncc(C)c(OC)c3C)nc2n1 (stereo unspecified) | inactive: -2.39 | inactive: -0.856 | inactive: 1.22 |
| NC(=O)c1[nH]c2ccc(Cl)cc2c1Sc1ccccc1 | inactive: 0.589 | inactive: 1.39 | inactive: -0.00561 |
